Results are given in words; binding and its absence hold for the method and conditions named. Some results given as binding are weak or reduced against the parent protein; the word gives no strength.
Experiments:
[1] = biological target: neuropilin-1 (NRP1), endogenous on PPC1 cells (human (endogenous in PPC-1)) (UniProt O14786); assay: confocal microscopy of fluorescent peptide-coated silver nanoparticles on cells
[2] = biological target: neuropilin-1 (NRP1), expressed in HEK-293T cells (human) (UniProt O14786); assay: as above

Protein sequences, listed by entry. Tags and fused reporters are not part of them. Residues count along the entry.
UniProt O14786, residues 22-923: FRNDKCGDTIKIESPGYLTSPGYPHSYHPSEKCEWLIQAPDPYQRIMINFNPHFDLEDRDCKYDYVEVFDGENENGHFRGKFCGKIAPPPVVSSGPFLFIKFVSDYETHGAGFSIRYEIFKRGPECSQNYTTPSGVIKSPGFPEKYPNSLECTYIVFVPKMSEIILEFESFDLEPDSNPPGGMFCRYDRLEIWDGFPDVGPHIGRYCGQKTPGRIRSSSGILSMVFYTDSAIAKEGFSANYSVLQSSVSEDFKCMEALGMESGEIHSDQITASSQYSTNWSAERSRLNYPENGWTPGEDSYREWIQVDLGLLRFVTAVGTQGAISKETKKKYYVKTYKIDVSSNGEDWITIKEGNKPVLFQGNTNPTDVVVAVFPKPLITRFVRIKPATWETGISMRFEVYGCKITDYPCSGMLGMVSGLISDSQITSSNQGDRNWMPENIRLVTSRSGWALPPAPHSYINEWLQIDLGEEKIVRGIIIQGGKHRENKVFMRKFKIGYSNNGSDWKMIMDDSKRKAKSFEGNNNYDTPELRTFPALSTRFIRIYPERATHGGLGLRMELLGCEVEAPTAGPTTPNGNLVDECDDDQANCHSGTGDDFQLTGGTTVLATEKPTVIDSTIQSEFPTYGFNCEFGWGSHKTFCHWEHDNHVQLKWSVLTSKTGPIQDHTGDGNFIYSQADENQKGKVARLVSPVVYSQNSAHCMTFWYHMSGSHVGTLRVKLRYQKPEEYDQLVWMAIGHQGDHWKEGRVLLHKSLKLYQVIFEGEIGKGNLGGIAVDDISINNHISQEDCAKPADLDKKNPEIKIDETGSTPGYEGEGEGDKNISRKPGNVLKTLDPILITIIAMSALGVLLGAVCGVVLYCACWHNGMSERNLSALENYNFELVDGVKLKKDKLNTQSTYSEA

RPARPAR (biotin-Ahx on the N-terminus; free C-terminal carboxyl (OH)) [biotin-Ahx-RPARPAR-OH, prototypic NRP1-binding CendR peptide, on silver nanoparticles (AgNP-CendR)]
binding [1]: binds
binding [2]: binds

— paper doi:10.1101/2020.06.07.137802 (bioRxiv, 2020)
